Experimental data published in US20100317723.

Chains of the proteins cited; added tags and fusions are not shown. Residues count along the entry.
UniProt P19338, 2-710: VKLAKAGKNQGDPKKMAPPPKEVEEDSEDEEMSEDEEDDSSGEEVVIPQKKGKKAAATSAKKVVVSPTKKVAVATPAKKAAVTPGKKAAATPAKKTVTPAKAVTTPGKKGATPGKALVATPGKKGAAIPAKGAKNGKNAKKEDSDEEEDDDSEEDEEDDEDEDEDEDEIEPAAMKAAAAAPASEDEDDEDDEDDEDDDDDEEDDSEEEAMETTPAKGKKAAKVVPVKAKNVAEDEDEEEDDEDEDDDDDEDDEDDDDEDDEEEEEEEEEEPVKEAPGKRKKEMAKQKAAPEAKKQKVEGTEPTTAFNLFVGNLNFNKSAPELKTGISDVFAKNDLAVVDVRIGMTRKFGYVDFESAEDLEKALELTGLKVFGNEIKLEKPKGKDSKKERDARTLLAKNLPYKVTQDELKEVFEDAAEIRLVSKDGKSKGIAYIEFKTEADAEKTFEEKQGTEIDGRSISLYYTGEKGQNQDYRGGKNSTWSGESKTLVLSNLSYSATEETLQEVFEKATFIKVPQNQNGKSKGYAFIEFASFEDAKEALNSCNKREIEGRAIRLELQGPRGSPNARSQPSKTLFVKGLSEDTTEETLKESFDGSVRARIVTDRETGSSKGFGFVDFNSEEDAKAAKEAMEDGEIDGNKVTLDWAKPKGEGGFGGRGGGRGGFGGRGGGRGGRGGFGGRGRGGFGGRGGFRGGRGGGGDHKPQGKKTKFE
UniProt P13383, whole entry: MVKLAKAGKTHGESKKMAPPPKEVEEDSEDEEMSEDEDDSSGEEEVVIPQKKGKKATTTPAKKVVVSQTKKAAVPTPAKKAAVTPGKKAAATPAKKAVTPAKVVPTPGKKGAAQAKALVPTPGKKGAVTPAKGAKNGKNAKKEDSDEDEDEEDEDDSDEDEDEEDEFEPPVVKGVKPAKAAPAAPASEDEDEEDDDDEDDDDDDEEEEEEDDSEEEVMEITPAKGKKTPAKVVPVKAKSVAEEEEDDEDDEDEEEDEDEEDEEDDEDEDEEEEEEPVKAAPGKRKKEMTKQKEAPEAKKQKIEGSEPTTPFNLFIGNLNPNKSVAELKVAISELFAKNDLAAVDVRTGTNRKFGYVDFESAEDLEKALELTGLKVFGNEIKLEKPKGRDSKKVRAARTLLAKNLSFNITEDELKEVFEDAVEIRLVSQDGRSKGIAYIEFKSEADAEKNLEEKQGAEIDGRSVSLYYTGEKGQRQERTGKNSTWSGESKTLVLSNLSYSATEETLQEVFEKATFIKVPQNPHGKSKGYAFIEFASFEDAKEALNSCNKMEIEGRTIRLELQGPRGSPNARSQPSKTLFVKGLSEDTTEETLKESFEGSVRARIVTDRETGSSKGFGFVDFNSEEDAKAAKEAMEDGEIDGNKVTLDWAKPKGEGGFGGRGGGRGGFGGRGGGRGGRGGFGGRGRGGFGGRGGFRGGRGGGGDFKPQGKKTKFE

Key:
[1] = target: Nucleolin (cell-surface, human cancer cell lines) (UniProt P19338); assay: flow cytometry; details: protein on the cell surface, label: 5'-Cy3, single-stranded DNA
[2] = target: Nucleolin (cell-surface, human cancer cell lines) (UniProt P19338); assay: activity in cells; details: NapdU at T12, T13; 4 uM, MDA-MB231 viability; higher inhibition than AS1411; protein on the cell surface; single-stranded DNA; variant of AS1411 (Cy3-1642-80)
[3] = target: Nucleolin (cell-surface, human cancer cell lines) (UniProt P19338); assay: binding assay; details: HeLa cells; no significant fluorescent signal; protein on the cell surface; label: 5'-Cy3; single-stranded DNA; variant of GRO29A (Cy3-1641-3)
[4] = target: Nucleolin (cell-surface, C6 rat glioma cells) (UniProt P13383); assay: binding assay; details: protein on the cell surface, protein details: endogenous on C6 cells (ATCC), label: 5'-Cy3, single-stranded DNA, variant of GRO29A (Cy3-1641-3)

GGTGGTGGTGGTTGTGGTGGTGGTGG [1642-88]: binds ([1]; BzdU at all T (3, 6, 9, 12, 13, 15, 18, 21, 24), increased versus AS1411 on various cancer cell lines, HBSS, ice, variant of AS1411 (Cy3-1642-80)).

GGTGGTGGTGGTTGTGGTGGTGGTGG [1642-114]: binds ([1]; BzdU at T12, T13, T24, increased versus AS1411, similar to central double modification, variant of AS1411 (Cy3-1642-80)).

GGTGGTGGTGGTTGTGGTGGTGGTGG [1642-115]: binds ([1]; BzdU at T12, T13, increased versus AS1411 on various cancer cell lines, HBSS, ice, variant of AS1411 (Cy3-1642-80)).

GGTGGTGGTGGTTGTGGTGGTGGTGG [1642-116]: binds ([1]; BzdU at T12, T13, T15, increased versus AS1411, similar to central double modification, variant of AS1411 (Cy3-1642-80)).

GGTGGTGGTGGTTGTGGTGGTGGTGG [1642-119]: binds ([1]; BzdU at T9, T12, T13, increased versus AS1411, similar to central double modification, variant of AS1411 (Cy3-1642-80)).

GGTGGTGGTGGTTGTGGTGGTGGTGG [1642-121]: binds ([1]; BzdU at T3, T12, T13, increased versus AS1411, similar to central double modification, variant of AS1411 (Cy3-1642-80)).

GGTGGTGGTGGTTGTGGTGGTGGTGG [1642-132]: binds ([1]; NapdU at all T (3, 6, 9, 12, 13, 15, 18, 21, 24), increased versus AS1411 on various cancer cell lines, HBSS, ice, variant of AS1411 (Cy3-1642-80)).

GGTGGTGGTGGTTGTGGTGGTGGTGG [1642-160]: binds ([1]; NapdU at T12, T13, T24, increased versus AS1411, similar to central double modification, variant of AS1411 (Cy3-1642-80)).

For GGTGGTGGTGGTTGTGGTGGTGGTGG [1642-161], the “functional effect of the aptamer” value [2] was “active” and the binding result ([1]; NapdU at T12, T13, increased versus AS1411 on various cancer cell lines, HBSS, ice, variant of AS1411 (Cy3-1642-80)) was “binds”.

GGTGGTGGTGGTTGTGGTGGTGGTGG [1642-162]: binds ([1]; NapdU at T12, T13, T15, increased versus AS1411, similar to central double modification, variant of AS1411 (Cy3-1642-80)).

GGTGGTGGTGGTTGTGGTGGTGGTGG [1642-165]: binds ([1]; NapdU at T9, T12, T13, increased versus AS1411, similar to central double modification, variant of AS1411 (Cy3-1642-80)).

GGTGGTGGTGGTTGTGGTGGTGGTGG [1642-167]: binds ([1]; NapdU at T3, T12, T13, increased versus AS1411, similar to central double modification, variant of AS1411 (Cy3-1642-80)).

GGTGGTGGTGGTTGTGGTGGTGGTGG [1642-177]: binds ([1]; 4-PBdU at all T (3, 6, 9, 12, 13, 15, 18, 21, 24), increased versus AS1411, variant of AS1411 (Cy3-1642-80)).

GGTGGTGGTGGTTGTGGTGGTGGTGG [1642-205]: binds ([1]; 4-PBdU at T12, T13, T24, increased versus AS1411, similar to central double modification, variant of AS1411 (Cy3-1642-80)).

GGTGGTGGTGGTTGTGGTGGTGGTGG [1642-206]: binds ([1]; 4-PBdU at T12, T13, increased versus AS1411, variant of AS1411 (Cy3-1642-80)).

GGTGGTGGTGGTTGTGGTGGTGGTGG [1642-207]: binds ([1]; 4-PBdU at T12, T13, T15, increased versus AS1411, similar to central double modification, variant of AS1411 (Cy3-1642-80)).

GGTGGTGGTGGTTGTGGTGGTGGTGG [1642-210]: binds ([1]; 4-PBdU at T9, T12, T13, increased versus AS1411, similar to central double modification, variant of AS1411 (Cy3-1642-80)).

GGTGGTGGTGGTTGTGGTGGTGGTGG [1642-212]: binds ([1]; 4-PBdU at T3, T12, T13, increased versus AS1411, similar to central double modification, variant of AS1411 (Cy3-1642-80)).

“GGTGGTGGTGGTTGTGGTGGTGGTGG [AS1411 (Cy3-1642-80)]”: binds ([1]; human cancer cell lines, 100 pmol in 200 uL HBSS on ice, reference).

“TTTCCTCCTCCTCCTTCTCCTCCTCCTCC [CRO29A (Cy3-1641-8)]”: no binding [3]; no binding ([4]; not clearly visualized in C6 cells by confocal, 20 nM, negative control).

TTTGGTGGTGGTGGTTGTGGTGGTGGTGG [1642-70]: binds ([4]; NapdU at T1, T15, T16, C6 cell fluorescence, better than GRO29A).

TTTGGTGGTGGTGGTTGTGGTGGTGGTGG [1642-71]: binds ([4]; NapdU at T2, T3, T15, T16, C6 cell fluorescence, better than GRO29A).

TTTGGTGGTGGTGGTTGTGGTGGTGGTGG [1642-72]: binds ([4]; NapdU at T1, T3, T15, T16, C6 cell fluorescence, better than GRO29A).

TTTGGTGGTGGTGGTTGTGGTGGTGGTGG [1642-73]: binds ([4]; NapdU at T1, T2, T3, T15, T16, C6 cell fluorescence, better than GRO29A).

For some assays here: Where cells or extracts were used, other partners may take part. For some assays here: Negatives hold for the conditions tested.
